Values quoted from earlier work as cited in US11965896B2, “Methods of treating patients at risk for renal injury and renal failure” (RENIBUS THERAPEUTICS, INC., priority 2018, dated 2024).
For at least one compound, name, drawing or mass did not settle the structure.

System: serum creatinine
Settings: patients treated with RTA 402

COC(=O)[C@]12CCC(C)(C)C[C@H]1[C@H]1C(=O)C=C3[C@@]4(C)C=C(C#N)C(=O)C(C)(C)[C@@H]4CC[C@@]3(C)[C@]1(C)CC2 [RTA 402, bardoxolone methyl]
serum creatinine: significant reductions in serum creatinine
